Most values lie at the floor of the assay. Slopes are relative: functional sequences can read slightly below zero.
What follows are substances tested on Saccharomyces cerevisiae PS128 hsf1 delta, HSF1(1-493) fusion (assay: growth estimate (transactivation domain function in HSF1 fusion, heat-shock survival) (a.u. (slope of normalised read count over time)); higher = stronger growth at 37°C, i.e. more transactivation activity). Details: library: random library.

| Substance | growth estimate |
| --- | --- |
| SDEVSSLFRRDNREGAICTK | < -0.25 |
| SDGIERGQALL | < -0.25 |
| SDHGDQGPLREC | < -0.25 |
| SDIGVG | < -0.25 |
| SDIPRIGASDCSCSFKLFEW | -0.0802 |
| SDKEDNCAKKYGPGSPLLLD | < -0.25 |
| SDKHNRPLVRGQRISVRALT | < -0.25 |
| SDKQCFGRVLGFKAY | -0.246 |
| SDLGA | < -0.25 |
| SDLGLEVAKTWWIHDSLGKT | < -0.25 |
| SDLRKPLPPDW | < -0.25 |
| SDLWEQVCAETLANCYSTTV | < -0.25 |
| SDNRQHGGATKHRAPETDVS | < -0.25 |
| SDNSS | < -0.25 |
| SDP | < -0.25 |
| SDPKS | < -0.25 |
| SDPRGEEVSGRNLSLME | < -0.25 |
| SDPSYGEPFGVFYFC | -0.101 |
| SDPWISSPAKEPQVCARSSL | < -0.25 |
| SDREWPLDRPKVVVTFK | < -0.25 |
| SDRMAGFRQVWSRHLVLSGV | < -0.25 |
| SDRSMKALQS | < -0.25 |
| SDRTPLVVKDSCRNLTTAVS | < -0.25 |
| SDSFALTLLGATA | < -0.25 |
| SDTENPKLFRLCMVMRDFNP | < -0.25 |

| Substance | growth estimate |
| --- | --- |
| SDTLAQRCPSPDRMRQRPSA | < -0.25 |
| SDTLVGNGSYSGLWASVTPL | < -0.25 |
| SDTTDLRQVLPRYSCIDLTS | < -0.25 |
| SDTVMEQTSNEINWGGWYGP | < -0.25 |
| SDTW | < -0.25 |
| SDV | < -0.25 |
| SDVECQAAPVRTPRGVLFRW | < -0.25 |
| SDVTRVF | < -0.25 |
| SDWHLDRPVPVTGKGVSTRV | < -0.25 |
| SDWPRNSVGPYPATRCSGVP | < -0.25 |
| SDYASRDISSNFENREILAA | < -0.25 |
| SDYRVTSACIEPGGNCGLKR | < -0.25 |
| SDYTCELNHD | < -0.25 |
| SDYVPGGTSIHRWARSVDYT | < -0.25 |
| SEA | < -0.25 |
| SECATHRGAEYRGSRLTDVA | < -0.25 |
| SECGIFANATK | < -0.25 |
| SECGRVYSSADSVSPVSTNG | < -0.25 |
| SECHVT | < -0.25 |
| SEEGLVSTEAADTFRWILKC | < -0.25 |
| SEEGSGLLTQRNYGDRSFKR | < -0.25 |
| SEETMLYFANRDRLQLPEWR | < -0.25 |
| SEF | < -0.25 |
| SEGDK | < -0.25 |
| SEGFLVPDMRVQEGGSIQGN | < -0.25 |

| Substance | growth estimate |
| --- | --- |
| SEGILN | < -0.25 |
| SEGIYALHYRRQFARIVERP | < -0.25 |
| SEGLATLRTIAVEGLRRTRL | < -0.25 |
| SEGPKRVRIDLAPAGGAQLT | < -0.25 |
| SEGQAPYRAGRPVELGNGKP | < -0.25 |
| SEGRCHCVIQWPALGGQSSG | < -0.25 |
| SEHYEL | < -0.25 |
| SEL | < -0.25 |
| SELCDGDDGGRPS | < -0.25 |
| SELEAQDNKNRAWLL | < -0.25 |
| SELRYV | < -0.25 |
| SEPGATVHGA | < -0.25 |
| SEPKI | < -0.25 |
| SEPLKDRYGDGRASGTEIHG | < -0.25 |
| SEPLVLRNPNMLGDAPESRH | < -0.25 |
| SEQMSPRR | < -0.25 |
| SERCWEVFSLGKLANRGEQG | < -0.25 |
| SERITPCRAGGCLPLPNCAP | < -0.25 |
| SESAT | < -0.25 |
| SESISGGLARIG | < -0.25 |
| SESQ | < -0.25 |
| SEVNFKALNI | < -0.25 |
| SEVPT | < -0.25 |
| SEWVYDRPISRIHVVIGSKT | < -0.25 |
| SFAQNARHISEEDRDAAEKF | < -0.25 |

Copied from the entries so far (29 entries):

| Substance | growth estimate |
| --- | --- |
| SDWPRNSVGPYPATRCSGVP | < -0.25 |
| SDYASRDISSNFENREILAA | < -0.25 |
| SDYRVTSACIEPGGNCGLKR | < -0.25 |
| SDYTCELNHD | < -0.25 |
| SDYVPGGTSIHRWARSVDYT | < -0.25 |
| SEA | < -0.25 |
| SECATHRGAEYRGSRLTDVA | < -0.25 |
| SECGIFANATK | < -0.25 |
| SECGRVYSSADSVSPVSTNG | < -0.25 |
| SECHVT | < -0.25 |
| SEEGLVSTEAADTFRWILKC | < -0.25 |
| SEEGSGLLTQRNYGDRSFKR | < -0.25 |
| SEETMLYFANRDRLQLPEWR | < -0.25 |
| SEF | < -0.25 |
| SEGDK | < -0.25 |
| SEGFLVPDMRVQEGGSIQGN | < -0.25 |
| SEGILN | < -0.25 |
| SEGIYALHYRRQFARIVERP | < -0.25 |
| SEGLATLRTIAVEGLRRTRL | < -0.25 |
| SEGPKRVRIDLAPAGGAQLT | < -0.25 |
| SEGQAPYRAGRPVELGNGKP | < -0.25 |
| SEGRCHCVIQWPALGGQSSG | < -0.25 |
| SEHYEL | < -0.25 |
| SEL | < -0.25 |
| SELCDGDDGGRPS | < -0.25 |
| SELEAQDNKNRAWLL | < -0.25 |
| SELRYV | < -0.25 |
| SEPGATVHGA | < -0.25 |
| SEPKI | < -0.25 |

Continuation.

| Substance | growth estimate |
| --- | --- |
| SFESLTVEKNAG | < -0.25 |
| SFGRSL | < -0.25 |
| SFGTQGQNPAEARSRIAQQP | < -0.25 |
| SFGVTLLRARTSR | < -0.25 |
| SFIPITPIDVSAINTVGEPS | < -0.25 |
| SFIYLVRQAPRKELAVFHRA | < -0.25 |
| SFKMRTEHYWAGSTSWK | < -0.25 |
| SFLSHYTGNFLPFIRKIVKH | < -0.25 |
| SFNRHPPHWNAQYCFGGWAH | < -0.25 |
| SFP | < -0.25 |
| SFPHAARQR | < -0.25 |
| SFPLDSSDSTNLVDYLRRPA | < -0.25 |
| SFPLRNPRVRRLGTPGRPAE | < -0.25 |
| SFQYTEGSARGQSIGKVESI | < -0.25 |
| SFR | < -0.25 |
| SFRAVRSLGPFSLSTGSRGG | < -0.25 |
| SFRAYQYQGTDRSLSVNCRN | < -0.25 |
| SFRCG | -0.241 |
| SFRGVLHL | < -0.25 |
| SFRTNLDTQYSNCCSRVP | < -0.25 |
| SFRTQIVFKGWFLLGAPKRG | < -0.25 |
| SFSARFIEV | < -0.25 |
| SFSGITGLHGMGA | < -0.25 |
| SFSLRRPPRDNSGVHCPRGP | < -0.25 |
| SFSLSDSSDLPSFKSRLPDV | -0.246 |
